No constants are given. Whether binding was seen depends on the method and setting. Binding seen in cells or lysates may run through a third protein. Some entries that bind do so weakly or less than the wild type.
Tests used:
[1] = molecular target: CRX (cone rod homeobox protein) (UniProt O43186); assay: co-IP
[2] = molecular target: NR2E3 (photoreceptor-specific orphan nuclear receptor) (UniProt Q9Y5X4); assay: co-IP

Amino acid sequences for entries named in this document (tags omitted). A change or cut given only in a name is not applied to a line headed by its entry.
UniProt O43186: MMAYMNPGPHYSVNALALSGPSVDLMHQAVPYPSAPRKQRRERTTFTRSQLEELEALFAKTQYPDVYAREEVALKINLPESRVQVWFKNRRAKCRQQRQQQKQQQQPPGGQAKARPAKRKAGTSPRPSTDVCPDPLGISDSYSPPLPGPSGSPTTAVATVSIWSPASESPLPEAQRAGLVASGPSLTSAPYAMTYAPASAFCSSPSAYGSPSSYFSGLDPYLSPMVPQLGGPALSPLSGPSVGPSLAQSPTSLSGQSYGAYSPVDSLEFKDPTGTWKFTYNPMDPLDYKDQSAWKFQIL
UniProt Q9Y5X4: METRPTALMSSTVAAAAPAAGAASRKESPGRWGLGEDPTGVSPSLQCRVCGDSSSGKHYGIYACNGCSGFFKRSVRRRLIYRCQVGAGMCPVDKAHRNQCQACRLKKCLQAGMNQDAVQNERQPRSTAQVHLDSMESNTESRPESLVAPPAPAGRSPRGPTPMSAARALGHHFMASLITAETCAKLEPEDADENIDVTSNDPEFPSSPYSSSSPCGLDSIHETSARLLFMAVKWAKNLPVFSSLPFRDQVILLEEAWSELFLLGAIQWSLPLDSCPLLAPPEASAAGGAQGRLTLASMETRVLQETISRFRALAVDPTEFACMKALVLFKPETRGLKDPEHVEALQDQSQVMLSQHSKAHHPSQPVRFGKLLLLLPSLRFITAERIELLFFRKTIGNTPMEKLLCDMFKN
UniProt P54845: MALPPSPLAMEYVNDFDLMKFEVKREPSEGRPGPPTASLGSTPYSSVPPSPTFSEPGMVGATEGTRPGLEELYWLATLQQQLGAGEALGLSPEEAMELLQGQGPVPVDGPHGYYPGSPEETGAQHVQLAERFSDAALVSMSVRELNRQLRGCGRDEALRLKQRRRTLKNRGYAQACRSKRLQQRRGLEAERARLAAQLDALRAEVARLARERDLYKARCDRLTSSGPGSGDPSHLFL

| Substance | binding [1] | binding [2] |
| --- | --- | --- |
| human NRL mutant p.P51S (Xpress-tagged) (from UniProt P54845 1-237) | binds | binds |
| human NRL mutant p.S50T (Xpress-tagged) (from UniProt P54845 1-237) | binds | binds |
| wild-type human NRL (Xpress-tagged, from pcDNA4 His/Max C) (from UniProt P54845 1-237) | binds | binds |

— patent publication US20100136537A1, “PHOTORECEPTOR PRECURSOR CELLS” (THE REGENTS OF THE UNIVERSITY OF MICHIGAN, priority 2006, published 2010)
